Test results: PMC4605787

Protein sequences, listed by entry. Tags and fused reporters are not part of them.
UniProt P47197: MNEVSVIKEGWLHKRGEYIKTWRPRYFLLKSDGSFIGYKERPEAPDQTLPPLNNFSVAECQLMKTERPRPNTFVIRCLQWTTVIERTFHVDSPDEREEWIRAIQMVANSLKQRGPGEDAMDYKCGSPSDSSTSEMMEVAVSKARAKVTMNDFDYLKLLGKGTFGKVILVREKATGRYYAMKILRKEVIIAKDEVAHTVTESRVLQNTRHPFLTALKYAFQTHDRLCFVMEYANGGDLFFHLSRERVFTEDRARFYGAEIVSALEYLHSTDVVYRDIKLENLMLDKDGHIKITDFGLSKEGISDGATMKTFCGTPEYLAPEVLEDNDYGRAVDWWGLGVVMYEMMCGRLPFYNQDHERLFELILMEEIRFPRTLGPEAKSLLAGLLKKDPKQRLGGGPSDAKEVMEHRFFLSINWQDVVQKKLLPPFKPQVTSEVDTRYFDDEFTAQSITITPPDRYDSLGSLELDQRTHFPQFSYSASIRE
UniProt P60901: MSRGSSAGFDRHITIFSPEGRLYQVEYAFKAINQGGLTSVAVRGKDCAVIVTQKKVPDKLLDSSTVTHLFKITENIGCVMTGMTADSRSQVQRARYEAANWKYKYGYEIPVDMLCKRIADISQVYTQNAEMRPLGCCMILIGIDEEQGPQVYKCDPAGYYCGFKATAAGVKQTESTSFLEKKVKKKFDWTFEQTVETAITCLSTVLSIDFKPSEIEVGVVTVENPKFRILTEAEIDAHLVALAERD
UniProt Q62868: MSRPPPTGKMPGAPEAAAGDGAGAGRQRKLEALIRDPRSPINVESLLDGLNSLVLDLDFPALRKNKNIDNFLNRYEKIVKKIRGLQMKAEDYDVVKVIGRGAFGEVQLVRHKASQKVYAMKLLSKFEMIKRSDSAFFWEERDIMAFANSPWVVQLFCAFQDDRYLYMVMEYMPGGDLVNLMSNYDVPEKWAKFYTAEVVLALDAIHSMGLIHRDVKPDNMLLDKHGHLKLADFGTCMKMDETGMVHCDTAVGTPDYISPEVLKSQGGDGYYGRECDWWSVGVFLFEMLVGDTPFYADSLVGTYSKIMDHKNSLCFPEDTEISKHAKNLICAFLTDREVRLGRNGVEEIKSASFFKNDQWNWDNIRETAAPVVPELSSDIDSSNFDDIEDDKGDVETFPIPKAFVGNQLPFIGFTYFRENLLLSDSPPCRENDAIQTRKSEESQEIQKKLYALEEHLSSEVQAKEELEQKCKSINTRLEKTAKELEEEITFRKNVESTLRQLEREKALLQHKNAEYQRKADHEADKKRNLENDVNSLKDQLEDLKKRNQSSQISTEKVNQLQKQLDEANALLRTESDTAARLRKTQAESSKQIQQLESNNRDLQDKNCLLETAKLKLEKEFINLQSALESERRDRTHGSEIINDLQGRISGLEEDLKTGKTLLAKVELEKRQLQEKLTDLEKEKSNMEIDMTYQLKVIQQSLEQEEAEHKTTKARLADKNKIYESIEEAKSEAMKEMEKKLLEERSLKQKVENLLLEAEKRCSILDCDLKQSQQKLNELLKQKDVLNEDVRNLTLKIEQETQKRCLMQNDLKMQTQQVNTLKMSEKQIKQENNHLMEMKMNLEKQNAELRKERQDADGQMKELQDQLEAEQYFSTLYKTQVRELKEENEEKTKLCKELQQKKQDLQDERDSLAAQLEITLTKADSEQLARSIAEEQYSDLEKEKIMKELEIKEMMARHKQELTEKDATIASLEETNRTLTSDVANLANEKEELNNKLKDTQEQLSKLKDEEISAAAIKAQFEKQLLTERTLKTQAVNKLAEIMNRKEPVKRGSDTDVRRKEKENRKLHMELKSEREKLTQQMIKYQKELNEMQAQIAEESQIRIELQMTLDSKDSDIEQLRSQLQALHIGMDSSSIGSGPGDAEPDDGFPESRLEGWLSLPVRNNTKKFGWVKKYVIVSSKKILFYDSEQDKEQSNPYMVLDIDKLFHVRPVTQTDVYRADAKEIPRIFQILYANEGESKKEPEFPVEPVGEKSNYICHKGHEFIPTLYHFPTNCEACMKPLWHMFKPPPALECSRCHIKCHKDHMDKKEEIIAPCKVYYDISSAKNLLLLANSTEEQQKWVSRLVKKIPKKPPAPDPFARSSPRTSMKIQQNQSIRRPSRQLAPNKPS
UniProt P02793: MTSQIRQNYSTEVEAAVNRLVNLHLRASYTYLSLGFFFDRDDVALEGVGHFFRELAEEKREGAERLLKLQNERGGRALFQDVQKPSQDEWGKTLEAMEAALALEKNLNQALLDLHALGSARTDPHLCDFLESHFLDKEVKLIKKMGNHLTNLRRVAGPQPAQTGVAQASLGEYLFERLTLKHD
UniProt Q29RW1: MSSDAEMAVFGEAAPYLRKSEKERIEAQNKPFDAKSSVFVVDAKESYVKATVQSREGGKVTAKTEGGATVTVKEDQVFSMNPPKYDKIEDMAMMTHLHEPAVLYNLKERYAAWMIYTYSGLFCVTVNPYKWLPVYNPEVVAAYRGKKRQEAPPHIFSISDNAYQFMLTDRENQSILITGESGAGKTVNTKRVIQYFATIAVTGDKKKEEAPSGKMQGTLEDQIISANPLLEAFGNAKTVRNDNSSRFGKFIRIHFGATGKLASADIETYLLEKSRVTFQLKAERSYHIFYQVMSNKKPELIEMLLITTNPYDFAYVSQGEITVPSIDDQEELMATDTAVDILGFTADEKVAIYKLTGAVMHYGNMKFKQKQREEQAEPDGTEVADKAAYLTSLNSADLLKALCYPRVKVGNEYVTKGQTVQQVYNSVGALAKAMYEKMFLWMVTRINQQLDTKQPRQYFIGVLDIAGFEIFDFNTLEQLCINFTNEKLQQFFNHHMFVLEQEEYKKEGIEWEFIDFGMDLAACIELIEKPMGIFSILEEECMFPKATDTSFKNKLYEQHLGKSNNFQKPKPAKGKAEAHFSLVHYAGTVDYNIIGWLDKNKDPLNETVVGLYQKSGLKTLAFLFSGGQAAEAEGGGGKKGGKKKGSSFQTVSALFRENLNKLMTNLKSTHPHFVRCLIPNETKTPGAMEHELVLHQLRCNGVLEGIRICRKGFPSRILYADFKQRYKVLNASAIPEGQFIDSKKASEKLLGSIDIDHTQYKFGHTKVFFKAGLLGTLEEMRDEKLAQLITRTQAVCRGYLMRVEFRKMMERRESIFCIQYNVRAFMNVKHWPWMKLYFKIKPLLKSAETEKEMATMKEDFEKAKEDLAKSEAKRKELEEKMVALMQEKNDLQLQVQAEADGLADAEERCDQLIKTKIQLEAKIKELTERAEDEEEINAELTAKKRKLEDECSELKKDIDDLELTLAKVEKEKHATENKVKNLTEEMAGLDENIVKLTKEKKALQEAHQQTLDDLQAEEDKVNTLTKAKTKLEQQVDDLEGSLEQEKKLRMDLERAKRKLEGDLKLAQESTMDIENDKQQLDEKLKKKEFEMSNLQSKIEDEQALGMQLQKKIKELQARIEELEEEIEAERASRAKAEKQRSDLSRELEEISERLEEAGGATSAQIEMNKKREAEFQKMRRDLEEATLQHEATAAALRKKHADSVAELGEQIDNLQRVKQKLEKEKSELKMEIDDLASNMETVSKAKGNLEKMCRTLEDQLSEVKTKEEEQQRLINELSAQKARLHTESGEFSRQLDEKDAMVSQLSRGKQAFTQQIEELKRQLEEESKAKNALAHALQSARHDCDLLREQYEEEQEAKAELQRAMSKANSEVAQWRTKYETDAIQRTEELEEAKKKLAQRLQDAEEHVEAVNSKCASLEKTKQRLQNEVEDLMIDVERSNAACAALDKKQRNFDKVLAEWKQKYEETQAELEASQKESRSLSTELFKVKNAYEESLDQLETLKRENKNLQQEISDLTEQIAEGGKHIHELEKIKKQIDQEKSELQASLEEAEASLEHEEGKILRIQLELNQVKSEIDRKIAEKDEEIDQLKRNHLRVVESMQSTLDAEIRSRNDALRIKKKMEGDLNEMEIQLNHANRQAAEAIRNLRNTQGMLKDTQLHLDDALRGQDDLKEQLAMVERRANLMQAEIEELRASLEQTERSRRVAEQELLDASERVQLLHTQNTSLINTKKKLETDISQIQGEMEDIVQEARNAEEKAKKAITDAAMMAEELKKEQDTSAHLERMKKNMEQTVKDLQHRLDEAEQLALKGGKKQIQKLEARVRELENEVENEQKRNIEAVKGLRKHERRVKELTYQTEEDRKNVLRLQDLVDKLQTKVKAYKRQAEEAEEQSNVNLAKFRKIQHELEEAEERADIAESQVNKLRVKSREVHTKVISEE
UniProt Q6P9T8: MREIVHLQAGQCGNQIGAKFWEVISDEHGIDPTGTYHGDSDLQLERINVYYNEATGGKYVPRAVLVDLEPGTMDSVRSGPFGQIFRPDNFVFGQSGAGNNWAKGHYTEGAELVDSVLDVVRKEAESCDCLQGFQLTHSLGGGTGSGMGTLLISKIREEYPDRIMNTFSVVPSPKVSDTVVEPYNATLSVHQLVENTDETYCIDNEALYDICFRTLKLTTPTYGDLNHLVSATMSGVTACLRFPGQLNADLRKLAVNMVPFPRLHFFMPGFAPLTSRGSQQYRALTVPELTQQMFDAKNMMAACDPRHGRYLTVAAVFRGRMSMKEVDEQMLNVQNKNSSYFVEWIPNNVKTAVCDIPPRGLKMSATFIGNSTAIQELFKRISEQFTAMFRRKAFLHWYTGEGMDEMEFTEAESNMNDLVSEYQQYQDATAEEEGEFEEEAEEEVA
UniProt Q1JU68: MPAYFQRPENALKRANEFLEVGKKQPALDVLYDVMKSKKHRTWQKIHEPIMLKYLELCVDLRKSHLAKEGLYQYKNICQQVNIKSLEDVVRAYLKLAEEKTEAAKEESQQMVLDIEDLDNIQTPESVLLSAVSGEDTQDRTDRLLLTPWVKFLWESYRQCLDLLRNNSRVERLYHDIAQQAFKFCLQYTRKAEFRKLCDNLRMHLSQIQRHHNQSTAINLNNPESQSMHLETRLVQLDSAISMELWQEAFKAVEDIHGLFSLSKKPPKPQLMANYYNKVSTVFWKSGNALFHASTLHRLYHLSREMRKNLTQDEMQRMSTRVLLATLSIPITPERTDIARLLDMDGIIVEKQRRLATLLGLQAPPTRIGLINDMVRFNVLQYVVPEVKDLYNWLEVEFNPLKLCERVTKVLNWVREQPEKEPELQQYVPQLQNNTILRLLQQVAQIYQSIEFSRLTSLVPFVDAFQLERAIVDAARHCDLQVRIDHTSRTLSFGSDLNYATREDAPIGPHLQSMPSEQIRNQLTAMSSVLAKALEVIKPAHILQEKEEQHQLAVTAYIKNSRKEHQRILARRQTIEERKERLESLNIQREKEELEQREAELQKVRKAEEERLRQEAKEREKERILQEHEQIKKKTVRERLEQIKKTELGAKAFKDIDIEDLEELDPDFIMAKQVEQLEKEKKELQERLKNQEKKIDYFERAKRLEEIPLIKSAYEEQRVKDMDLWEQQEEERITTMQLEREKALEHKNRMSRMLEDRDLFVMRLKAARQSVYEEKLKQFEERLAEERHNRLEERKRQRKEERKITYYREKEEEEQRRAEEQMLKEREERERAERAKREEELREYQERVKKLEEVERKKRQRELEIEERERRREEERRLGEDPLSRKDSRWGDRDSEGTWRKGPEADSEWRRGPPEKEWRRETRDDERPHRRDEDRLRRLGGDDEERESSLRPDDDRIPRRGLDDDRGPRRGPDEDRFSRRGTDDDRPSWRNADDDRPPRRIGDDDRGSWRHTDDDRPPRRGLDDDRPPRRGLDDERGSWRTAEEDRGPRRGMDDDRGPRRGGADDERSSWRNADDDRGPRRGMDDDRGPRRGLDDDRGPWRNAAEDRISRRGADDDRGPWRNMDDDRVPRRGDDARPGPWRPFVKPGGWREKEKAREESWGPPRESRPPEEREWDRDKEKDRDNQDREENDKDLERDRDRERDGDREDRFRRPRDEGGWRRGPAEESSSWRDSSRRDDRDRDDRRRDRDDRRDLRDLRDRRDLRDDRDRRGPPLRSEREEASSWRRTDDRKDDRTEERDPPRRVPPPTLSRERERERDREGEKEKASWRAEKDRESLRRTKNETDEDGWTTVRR
UniProt P28480: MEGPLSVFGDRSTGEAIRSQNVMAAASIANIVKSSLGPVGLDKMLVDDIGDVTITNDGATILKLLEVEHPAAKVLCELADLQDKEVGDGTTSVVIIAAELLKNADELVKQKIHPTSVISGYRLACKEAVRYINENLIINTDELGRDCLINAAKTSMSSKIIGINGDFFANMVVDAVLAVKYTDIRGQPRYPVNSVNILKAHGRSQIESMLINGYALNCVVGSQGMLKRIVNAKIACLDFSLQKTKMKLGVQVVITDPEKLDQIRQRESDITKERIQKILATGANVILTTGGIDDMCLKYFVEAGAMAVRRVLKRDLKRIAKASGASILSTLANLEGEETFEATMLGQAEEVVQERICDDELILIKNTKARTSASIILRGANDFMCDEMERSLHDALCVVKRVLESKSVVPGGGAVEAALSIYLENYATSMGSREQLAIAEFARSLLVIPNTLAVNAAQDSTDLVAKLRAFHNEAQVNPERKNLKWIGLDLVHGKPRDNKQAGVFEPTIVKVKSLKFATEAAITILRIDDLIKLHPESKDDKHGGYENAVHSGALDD

Molecular target: Akt2 (rat (endogenous in L6 myoblasts)) (UniProt P47197)
Experiment: affinity purification with mass spectrometry; endogenous Akt2 immunoprecipitated (2 ug rabbit polyclonal anti-Akt2, protein A beads, overnight, 4°C) from 1 mg L6 myoblast lysate precleared with NIgG; cells serum-starved, with or without 100 nM insulin for 15 min; lysis buffer 50 mM HEPES pH 7.6, 150 mM NaCl, 1% Triton; 1D-SDS-PAGE, in-gel trypsin digestion, HPLC-ESI-MS/MS, label-free quantification; hits absent from all NIgG controls

binding | Substance
binds | Short/branched chain specific acyl-CoA dehydrogenase, mitochondrial (from UniProt P70584 34-432)
binds | Fibronectin (from UniProt P04937 25-2477)
binds | Dynactin subunit 2 (from UniProt Q6AYH5 1-402)
binds | Proteasome subunit alpha type-6 (from UniProt P60901 1-246)
binds | Peptidyl-prolyl cis-trans isomerase B (from UniProt P24368 34-216)
binds | Rho-associated protein kinase 2 (from UniProt Q62868 1-1388)
binds | Ferritin light chain 1 (from UniProt P02793 1-183)

Continued, substance first:

Substance | binding
Myosin-4 (from UniProt Q29RW1 1-1939) | binds
Tubulin beta-4B chain (from UniProt Q6P9T8 1-445) | binds
Eukaryotic translation initiation factor 3 subunit A (from UniProt Q1JU68 1-1354) | binds
T-complex protein 1 subunit zeta (from UniProt Q3MHS9) | binds
T-complex protein 1 subunit alpha (from UniProt P28480 1-556) | binds

These are yes or no findings as the source states them, for the method shown. Binding seen in cells or lysates may run through a third protein. A yes stands for co-enrichment or nearness to the bait. Other partners may have been found.
